Values quoted from earlier work in patent publication EP0315197B1 (GÖDECKE AKTIENGESELLSCHAFT, priority 1987, dated 1989).
Structures can show the parent of a compound that is named as a salt. At least one read-out could not be matched to a standard name with certainty.

Conditions: human, in vivo; cited from earlier work

COc1ccc([C@@H]2Sc3ccccc3N(CCN(C)C)C(=O)[C@@H]2OC(C)=O)cc1 [Diltiazem, Diltiazemhydrochlorid]
therapeutische Halbwertszeiten: 3 to 5 h
